# Measured values from PMC4887914.
# By UniProt entry, the sequences of proteins in these tests, tags left out. Residues count along the entry.
# UniProt P08047, 2-785: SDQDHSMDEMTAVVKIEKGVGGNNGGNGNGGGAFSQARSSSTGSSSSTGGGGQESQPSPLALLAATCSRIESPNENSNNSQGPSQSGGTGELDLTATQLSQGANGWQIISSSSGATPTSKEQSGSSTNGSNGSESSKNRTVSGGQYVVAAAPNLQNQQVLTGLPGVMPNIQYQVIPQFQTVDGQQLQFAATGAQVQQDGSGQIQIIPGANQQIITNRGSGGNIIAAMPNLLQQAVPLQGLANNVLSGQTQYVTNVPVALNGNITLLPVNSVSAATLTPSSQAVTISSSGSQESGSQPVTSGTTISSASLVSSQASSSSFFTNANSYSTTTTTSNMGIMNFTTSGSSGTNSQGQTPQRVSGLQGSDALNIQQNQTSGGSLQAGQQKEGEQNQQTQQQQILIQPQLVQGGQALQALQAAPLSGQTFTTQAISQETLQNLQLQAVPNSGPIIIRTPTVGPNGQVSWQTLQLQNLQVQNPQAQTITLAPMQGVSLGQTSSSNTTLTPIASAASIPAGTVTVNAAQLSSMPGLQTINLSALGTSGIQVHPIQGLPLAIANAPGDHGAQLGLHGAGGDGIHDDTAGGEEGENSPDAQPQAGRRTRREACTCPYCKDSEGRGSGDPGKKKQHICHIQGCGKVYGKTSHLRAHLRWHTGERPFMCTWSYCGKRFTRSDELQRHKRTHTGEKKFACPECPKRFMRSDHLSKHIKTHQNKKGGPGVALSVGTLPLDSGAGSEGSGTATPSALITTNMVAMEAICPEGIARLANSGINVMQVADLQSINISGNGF
# The exact form of at least one protein or probe is not confirmed. No signal at the amounts used counts as a negative. At least one verdict was read from the data and is not stated in words by the source.
# Target: Sp1 (UniProt P08047)
# Test: EMSA
# Settings: recombinant Sp1; LightShift Chemiluminescent EMSA kit (Pierce), 25 °C, 20 min, 6% PAGE; 100-fold unlabeled competitor; salt and pH not stated; commercial protein; label: 3' biotin
sequence,measurement,value
CCTTCAAGTGACTAGGAAGTGGAAACCT (double strand) [MMP13 rs2252070A probe],binding result,no binding
